Measurements taken from article PMC5349851.
The list shows a part of the results, in another mix than the full data. At the low end of the ranking the order means little.

What was measured:
Assay in all cases: SELEX-seq (CSI, HT-SELEX, round 3)
Conditions in all cases: SELEX-seq: 1x PBS (10 mM phosphate, 137 mM NaCl, 2.7 mM KCl) pH 7.6, 2.5 mM DTT, 50 ng/ul poly dI-dC, 0.1% BSA, 50 nM biotinylated bZIP (1:3 with partner for …); high values mean tight binding; double strand, one strand shown
[1] = system: T1, BATF2 + ATF3
T1 sequence 1: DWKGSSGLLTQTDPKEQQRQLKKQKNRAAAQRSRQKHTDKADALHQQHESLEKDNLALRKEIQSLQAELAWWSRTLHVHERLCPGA
T1 sequence 2: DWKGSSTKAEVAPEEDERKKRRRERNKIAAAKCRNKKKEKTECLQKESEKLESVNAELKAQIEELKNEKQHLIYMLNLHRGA

[2] = system: BATF2 + ATF4
[3] = system: T2, JUNB + BATF2
T2 sequence 1: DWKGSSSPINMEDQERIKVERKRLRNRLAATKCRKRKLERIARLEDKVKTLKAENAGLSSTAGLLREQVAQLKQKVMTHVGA
T2 sequence 2: T1 sequence 1

[4] = system: T3, BATF + HLF
T3 sequence 1: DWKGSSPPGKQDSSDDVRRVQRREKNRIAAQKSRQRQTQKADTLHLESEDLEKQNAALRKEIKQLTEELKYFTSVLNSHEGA
T3 sequence 2: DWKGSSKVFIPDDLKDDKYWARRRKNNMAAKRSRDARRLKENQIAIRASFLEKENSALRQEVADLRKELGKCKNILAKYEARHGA

[5] = system: T4, JUNB + BATF
T4 sequence 1: T2 sequence 1
T4 sequence 2: T3 sequence 1

[6] = system: T5, JUNB + HLF
T5 sequence 1: T2 sequence 1
T5 sequence 2: T3 sequence 2

[7] = system: T6, JUNB + CREBZF
T6 sequence 1: T2 sequence 1
T6 sequence 2: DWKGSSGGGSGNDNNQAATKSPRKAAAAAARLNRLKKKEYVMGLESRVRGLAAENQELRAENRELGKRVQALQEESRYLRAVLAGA

In the case of ATGACGGAAT, the binding signal (relative CSI intensity (max = 1)) [1] is reported as 9.37e-05, the binding signal (relative CSI intensity (max = 1)) [2] is reported as 0.000958 and the binding signal (relative CSI intensity (max = 1)) [3] is reported as 0.000361. For the same sequence, the binding signal (relative CSI intensity (max = 1)) [4] was -0.0678.
Sequence ATGACGTCAT has a binding signal (relative CSI intensity (max = 1)) [1] of 0.0121.
ATGATGCAAT showed a binding signal (relative CSI intensity (max = 1)) [5] of 0.000564 and a binding signal (relative CSI intensity (max = 1)) [6] of -0.0179.
CCTGACGTCA was tested, and the binding signal (relative CSI intensity (max = 1)) [7] was 6.71e-05.
